Source: PubChem BioAssay AID602196 (INSERM, 2012)

Assay: 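Knock-downs that protect lung cancer cells from cisplatin or sensitise them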
Cells: human A549 lung cancer cells
Knock-down reagent: siRNA pair against human genes
Timing: 48 h transfection before cisplatin; time from cisplatin to read-out not stated
Challenge: cisplatin at a dose killing half of control-siRNA cells; exact dose and duration not given
Read-out: 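Shift in cisplatin death relative to control siRNA, from -50 (all cells die) to +50 (no cells die); siRNAs harmful on their own scored 0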
Reading the numbers: two-siRNA summed score (-2 to +2): higher = both siRNAs protect from cisplatin killing; -2 means both sensitise; mean protection from cisplatin (shift in death) and protection from cisplatin (shift in death), siRNA C and protection from cisplatin (shift in death), siRNA D: higher = protection from cisplatin killing
Hit rule: 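Each siRNA scores 0 if harmful alone by LDH or WST-1, otherwise +1 if it reduces and -1 if it increases cisplatin killing; a gene is active when both siRNAs agree (sum +2 or -2)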
Meaning of the calls: active = both siRNAs shift cisplatin killing the same way; inactive = no consistent shift, or siRNA harmful alone
In all, the deposit lists about 23,000 reagents; this is an unselected part. Over the whole deposit, 455 (2%) got an active call. 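Active includes both protection and sensitisation; some change values fall well beyond the stated -50 to +50 range.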 No sequences are given here. Not stated in the record: the amount of reagent.

The first 4 entries, to show the layout:
gene knocked down	two-siRNA summed score (-2 to +2)	mean protection from cisplatin (shift in death) (%)	protection from cisplatin (shift in death), siRNA C (%)	protection from cisplatin (shift in death), siRNA D (%)	Call
SLC35D2	1	1.9	8.9	-5.1	inactive
H2BC14	0	9.3	13.4	5.1	inactive
SRP54	0	4.5	7.1	1.9	inactive
KCNIP3	0	6.4	5.3	7.6	inactive

Main list, from the first entry:
gene knocked down	two-siRNA summed score (-2 to +2)	mean protection from cisplatin (shift in death) (%)	protection from cisplatin (shift in death), siRNA C (%)	protection from cisplatin (shift in death), siRNA D (%)	Call
SLC35D2	1	1.9	8.9	-5.1	inactive
H2BC14	0	9.3	13.4	5.1	inactive
SRP54	0	4.5	7.1	1.9	inactive
KCNIP3	0	6.4	5.3	7.6	inactive
SLIT2	0	0.9	0.6	1.3	inactive
BTLA	0	-2.1	-12.5	8.2	inactive
IER3	0	7.4	-2.1	16.8	inactive
CASP10	0	2.2	-0.7	5.1	inactive
PHF13	-1	-13.7	-4.2	-23.2	inactive
IL6ST	0	3.4	8.9	-2.2	inactive
LOC392265	0	7.7	17.7	-2.3	inactive
MGC45731	0	5.4	6.9	3.9	inactive
DMTF1	-1	-7.8	-4.3	-11.3	inactive
ZFHX4	-1	-9.1	0.5	-18.7	inactive
LOC390254	1	16	28.2	3.8	inactive
SMC5	0	8.2	18.7	-2.3	inactive
MIR3150BHG	0	10.4	14.6	6.1	inactive
BHLHE22	-1	-16.8	-13.7	-19.9	inactive
RPAP3	0	2.7	1.1	4.3	inactive
FRMPD1	0	3.2	3.9	2.5	inactive
MTMR8	0	1.8	-8.6	12.3	inactive
MINDY3	1	14	17.7	10.3	inactive
TRIM43	0	-5.9	-6.3	-5.6	inactive
LIMS1	0	-1.9	10.4	-14.2	inactive
TXLNA	1	8.5	16.2	0.7	inactive
EZRP1	0	0.5	-4.9	5.8	inactive
MTERF2	0	3.5	8.5	-1.4	inactive
ST7L	0	6.5	0.8	12.3	inactive
LOC400125	1	11.5	16.2	6.8	inactive
FXN	1	19.8	28.3	11.4	inactive
BRD3	0	7.4	14.9	0	inactive
CFAP43	0	0.6	-2.7	3.8	inactive
ATP6V0A1	0	-9.9	0.3	-20.2	inactive
ISOC2	0	-2.5	2.7	-7.6	inactive
OR1S2	0	4.5	0.6	8.4	inactive
UPK1A	0	22.1	38.2	5.9	inactive
FSTL3	0	-6.5	-5.1	-7.8	inactive
HMOX2	1	16.9	17.8	16	inactive
PRR12	0	8.7	8.3	9.2	inactive
LOC400369	0	13	19.4	6.5	inactive
LOC389217	0	6.4	4.4	8.4	inactive
MS4A2	-1	-6.9	-9.5	-4.3	inactive
TNFSF12-TNFSF13	1	11.2	6.5	16	inactive
LOC439982	-1	-5.4	2.2	-13.1	inactive
PCDHB4	0	4.9	15.1	-5.4	inactive
LOC339875	1	14.4	16.8	12	inactive
KIAA0540	0	6	3.7	8.4	inactive
LINGO2	0	-12.3	11.9	-36.4	inactive
OR4A5	0	-2.1	-2.8	-1.3	inactive
OR5M8	0	-1.6	6	-9.3	inactive
LOC401819	0	-23.9	-22.8	-25	inactive
LOC400964	0	11.1	15.6	6.6	inactive
APC	0	-0.3	2.6	-3.3	inactive
ST3GAL6	1	15	6.5	23.6	inactive
H2BC6	0	8.6	10.9	6.4	inactive
NSUN6	0	10.2	13.9	6.4	inactive
LOC441641	1	19.7	6.7	32.8	inactive
